# Source: PubChem BioAssay AID1347423 (Functional Genomics Laboratory (NCATS/FGL), 2020)
# About 210 (0.4%) of roughly 52,000 sequences were called active.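 The calls were made as follows: active = gene whose silencing raises cell survival under the drug, median off-target-corrected z-score across its silencing RNAs 2 or more; inactive = the rest.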 Some of the results follow.
# Assay: Resistance to Poly (ADP-Ribose) Polymerase inhibitor: Gene Identification via Genome-wide siRNA Screen
# Conditions: mouse BRCA2 R2336H ES cells, olaparib, CellTiter-Glo viability; hits give high values
# Outline: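 Mouse BRCA2 R2336H ES cells were reverse-transfected with siRNA (20 nM final), treated at 48 h with 500 nM olaparib, and read by CellTiter-Glo after 72 h. Scores: MAD-based z per siRNA, median per gene, seed off-target correction.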
row,Sequence,z-score
1,GGUUGCUGUUUAGUUUUCATT against 1810030O07Rik,inactive: 0.00878
2,CGGAGUUGAAGUUCAUUUATT against 2700097O09Rik,inactive: 0.293
3,GCAAGAAUGCAAUUUCUUATT against Olfr904,inactive: 0.266
4,GGAAUAUGGACCAAGAGAGTT against Plcb2,inactive: 0.145
5,GUCUUUAGAGUCAUCCUCUTT against Olfr493,inactive: 0.962
6,GGCAGAACGAACAGAGUUUTT against Nipsnap3a,inactive: 1.56
7,GGCAACUUAAGUUUUACAGTT against 9030409E16Rik,inactive: 0.113
8,CCGAAAUUCUGACUGAGAATT against 2410018G23Rik,inactive: -1.28
9,GGCUUGAGGCCUAUUUCAGTT against Sod3,inactive: -2.13
10,GGUGAAUACUUCAGAUACATT against Sult2b1,inactive: -0.037
11,UGUACUGAUACAUACUUCCTT against Olfr1249,inactive: 0.47
12,CCACUCCCAUAAGGGCUAUTT against Smo,inactive: -0.035
13,GCCGUCAUCAUGGAAGGUUTT against Bace1,inactive: -0.557
14,CGUGGAUAGGUUUUUGUGGTT against 2510009E07Rik,inactive: 1.23
15,GCAAUACUCUGGUACUAGATT against 4932415D10Rik,inactive: -0.352
16,GGAUGAGCUGAAUUUCCUATT against Ocil,inactive: -0.662
17,GGCAGUAGCCAGAAGGCAUTT against 0610009J22Rik,inactive: -0.25
18,CCAUAUGAUAUAGCAUGAGTT against Agtr2,inactive: 1.2
19,GGGAAACAUCUUCCUAUCCTT against Serpina12,inactive: 1.16
20,GCUGCUAAGUCGCACAUCUTT against Ppfibp2,inactive: -0.516
21,CCGUGGGACCAGAGUUAAATT against Gm253,inactive: 1.99
22,GGCACCUGGAUUUUCUAUGTT against Crygs,inactive: 1.79

row,Sequence,z-score
1,GGAAGAAGAUGACAAUGAATT against Pak3,inactive: -0.137
2,CCAGAAGUCUCAAAUUCUGTT against Ccl8,inactive: -0.588
3,GGAUGUGCAUAGUUUAAAATT against Apg12l,inactive: 0.749
4,GGUGAUAGAAGUUUACAUGTT against Tnfsf4,inactive: 1.07
5,GCCAUCGAGUGUGACGAGATT against Nagpa,inactive: 0.148
6,GGUCAAAGCCUUUCAUUAUTT against 6330406L22Rik,inactive: 1.47
7,GGGCAAUAAUGCAAAGUAUTT against 4921522P10Rik,inactive: -2.23
8,GGUCAUUUCACUAGUUUUCTT against 9930014A18Rik,inactive: 1.26
9,CCUGUUGAGUAAGCAACAATT against 4932416K20Rik,inactive: -0.323
10,GGCUUCUGUUUUUAUUUGUTT against B230208J24Rik,inactive: 0.992
11,CGAUGAUCCUUAAAGGAUUTT against Hes5,inactive: 0.245
12,UACAUUACUUCAACUGGAATT against Gm1961,inactive: -0.634
13,CGAUGGUGUUUUUUGGCUATT against 9430071P14Rik,inactive: 0.223
14,CCCAUGACUAUCCAAACAATT against Kcnmb2,inactive: 0.375
15,GGAUUAUGCAAGUUACAUUTT against Nsf,inactive: -0.0349
16,GGAGUCACUCUGCUCUUUUTT against Kcnn1,inactive: 2.52
17,GGCCUCGAACAGUUUAUUATT against Snx12,inactive: -0.582
18,GGAGGCAGACUUCAGGGAUTT against Lepre1,inactive: 0.175
19,GGGACUUAAGUGAAGUUCATT against 5730405M13Rik,inactive: -1.22
20,CCCUACGUGAGACAUUUGATT against 4930564N15Rik,inactive: -0.215
21,GCGCAUUAGGAUAUAGACATT against 9530085L02Rik,inactive: 0.0519
22,GGAUGAUUUAUGGUUCUUGTT against V1rg4,inactive: 1.54

# Shown as tab-separated lines: part of the list above.
row	Sequence	z-score
6	GGUCAAAGCCUUUCAUUAUTT against 6330406L22Rik	inactive: 1.47
7	GGGCAAUAAUGCAAAGUAUTT against 4921522P10Rik	inactive: -2.23

# Further records follow:

row,Sequence,z-score
1,GGUAGAGACCGCAUAGAAATT against Aqp8,inactive: 0.697
2,UACGCUAAGGAAUAAGGACTT against Olfr110,inactive: -0.0124
3,CGCUUACAUGAACUUCAUATT against Trar3,inactive: -0.163
4,UUCCCACUCUGACUAUUUUTT against Olfr970,inactive: -1.14
5,GGUAAGGUUACAGCACUGATT against 2510006C20Rik,inactive: 0.942
6,GCGGAACUUUCAUUGCUGGTT against Rabggta,inactive: -0.0607
7,GGUUUAACUAGAAUUUGGUTT against F730023N20,inactive: 0.724
8,CCAGACCUGUUGUAAAGACTT against Grn,inactive: -8.1e-05
9,GGAGAGUGAUAUCAAGCCUTT against Lbr,inactive: 0.834
10,GGCCAAGAAACAUGCCCUATT against Pbx2,inactive: -0.613
11,GGACUUUACAAUAAAACAGTT against Dkk4,inactive: 0.906
12,CCAUCAUCCCUAGAUACCCTT against Muc20,inactive: -1.59
13,GGAACAGAACCACUACCUGTT against Slc39a5,inactive: -0.596
14,CCCUGAUUCAUACGACUGATT against Ctdp1,inactive: 0.27
15,GGAGGUACCAGCAGAAAGUTT against 1110001C20Rik,inactive: -0.668
16,GCAACUUUAUAGCAGAAUCTT against Apbb3,inactive: -0.686
17,GGCAUUUCGUGGAUCACCGTT against Gtpbp5,inactive: -0.584
18,GGAGACACUCGUCCUUUAUTT against Cyp20a1,inactive: -0.0559
19,GGACAAGUUUCAGUGACCCTT against Zdhhc9,inactive: -0.268
20,GGAACAGGCCACCAUUGAATT against Mrps7,inactive: -2.17
21,GGAAGUGGACAUCACCAUGTT against Sh3bgrl2,inactive: -0.564
